{"source": "PubChem BioAssay AID624093", "about": "(National Center for Advancing Translational Sciences (NCATS), 2012)", "biological_target": "Dual specificity tyrosine-phosphorylation-regulated kinase 1A (Homo sapiens) (UniProt Q13627)", "assay": "Confirmation Assay for Inhibitors of Dyrk1a (Kinase-Glo Assay): KU probe", "details": "Kinase-Glo ATP luminescence", "source_text": "NIH Molecular Libraries Probe Production Centers Network [MLPCN] NIH Chemical Genomics Center [NCGC] MLSCN Grant: 1R03MH084827-01 PI Name: Tom Misteli NCGC Assay Overview: The CMGC group of protein kinases which includes CDK-like kinases (Clk) and Dyks are essential kinases found in all eukaryotes. Clks have been implicated to play a role in the regulation of alternative splicing; while Dyrks, in particular over expression of Dyrk1A, has been linked to diseases as Down syndrome (DS; OMIM 190685) and Alzheimer disease (AD; OMIM 104300). Among the members of the CMGC group, the Clks and the Dyrks are very closely related therefore to determine validity and selectivity of an active compound observed in the CLK4 qHTS screen (AID:1770), a bioluminescent counter-screen against Dyrk1A was developed. […]\nNCGC Assay Protocol Summary: Two uL/well of substrate solution (8uM Dyrktide, 2uM ATP, 25mM Tris-HCl pH 7.5, 10mM MgCl2 , 0.5mM EGTA, 5mM cystein, 0.01% Triton X-100 final concentration) was dispensed into 1536-well assay plates (Greiner, solid white, medium-binding plates) with Aurora Discovery BioRAPTR Flying Reagent Dispenser (FRD, Beckton-Dickenson). […] The plates were spun for 30 seconds (1000 rpm) and incubated at ambient temperature for 2 minutes followed by a luminescence read using Perkin Elmer ViewLux plate reader at 3 seconds exposure time and 2x binning.", "note": "This list was built around the results that the source calls inconclusive (neither active nor inactive); the mix of calls is not that of the screen. The call rests on the fitted dose curve; in most records, active means well fitted inhibition curve with a large enough effect; inconclusive means small, poorly fitted or top-dose-only effect; inactive means flat fitted curve, though single readings scatter. Where the call is inconclusive, the potency comes from a doubtful curve fit.", "data": [{"smiles": "Clc1ccc(CNc2ccnc(-c3ccc4c(c3)OCO4)n2)cn1", "values": [{"measurement": "Potency", "value": "inconclusive: 29.2 µM [inhibitor, partial curve]"}]}]}
